Results deposited as PubChem BioAssay AID1259424 (University of Nebraska Medical Center, 2018).

Screen: 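Seek colon cancer survival genes behaving like KSR1, using a six-gene signature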 (primary screen)
System: human HCT116 colon cancer cells
Reagent: siRNA pool against human genes, 50 nM
Measurement: 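Log2 levels of six mRNAs (branched-DNA multiplex), adjusted by two reference genes and the non-targeting median, then scored against the average KSR1 knockdown pattern as Pearson r and euclidean distance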
Direction: mean correlation with KSR1 profile: higher = expression change more like KSR1 knockdown; mean distance from KSR1 profile: higher = expression change less like KSR1 knockdown
Shown is a random part of about 14,000 deposited reagents. 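Higher correlation or smaller distance means closer resemblance to KSR1 loss; control wells, including KSR1 knockdowns, recur on many plates.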 A reagent listed more than once was tested more than once; the source does not tell the runs apart. Further read-outs or replicates are left out here. Not given: the time to read-out.

Target gene	mean correlation with KSR1 profile	mean distance from KSR1 profile
AKR7A3 (aldo-keto reductase family 7 member A3)	-0.323	4.11
AKR1D1 (aldo-keto reductase family 1 member D1)	0.235	4.98
MPND (MPN domain containing)	0.714	2.95
TMEM185A (transmembrane protein 185A)	0.744	1.6
NOP14 (NOP14 nucleolar protein)	0.0113	3.67
TPM2 (tropomyosin 2)	0.877	0.601
SLC35E3	-0.0491	1.31
PHLPP2 (PH domain and leucine rich repeat protein phosphatase 2)	-0.0874	1.09
GPRC5B (G protein-coupled receptor class C group 5 member B)	0.97	1.46
WAS (WASP actin nucleation promoting factor)	0.0662	1.53
SPOCK2	0.45	1.48
GAGE7 (G antigen 7)	-0.15	3.24
KCNK9 (potassium two pore domain channel subfamily K member 9)	-0.295	1.66
WDR46 (WD repeat domain 46)	0.0218	3.66
NAIP (NLR family apoptosis inhibitory protein)	-0.846	1.9
ZNF324 (zinc finger protein 324)	-0.395	2.94
AKR1C3 (aldo-keto reductase family 1 member C3)	0.27	1.99
H3C11 (H3 clustered histone 11)	-0.441	1.18
CCNB2 (cyclin B2)	-0.921	2.55
ATP6V1A (ATPase H+ transporting V1 subunit A)	-0.0742	3.86
SETD3	0.664	1.9
BHLHE41 (basic helix-loop-helix family member e41)	0.535	1.8
RRAGA (Ras related GTP binding A)	0.0562	2.31
CCN4 (cellular communication network factor 4)	0.432	4.16
DLL1 (delta like canonical Notch ligand 1)	0.676	1.38
ACBD4 (acyl-CoA binding domain containing 4)	-0.0484	1.78
KCTD10 (potassium channel tetramerization domain containing 10)	-0.00556	3.71
ROPN1L (rhophilin associated tail protein 1 like)	-0.199	2.76

Part of the list above in another layout.
{"Target gene":"AKR7A3 (aldo-keto reductase family 7 member A3)","mean correlation with KSR1 profile":-0.323,"mean distance from KSR1 profile":4.11}
{"Target gene":"AKR1D1 (aldo-keto reductase family 1 member D1)","mean correlation with KSR1 profile":0.235,"mean distance from KSR1 profile":4.98}
{"Target gene":"MPND (MPN domain containing)","mean correlation with KSR1 profile":0.714,"mean distance from KSR1 profile":2.95}
{"Target gene":"TMEM185A (transmembrane protein 185A)","mean correlation with KSR1 profile":0.744,"mean distance from KSR1 profile":1.6}
{"Target gene":"NOP14 (NOP14 nucleolar protein)","mean correlation with KSR1 profile":0.0113,"mean distance from KSR1 profile":3.67}
{"Target gene":"TPM2 (tropomyosin 2)","mean correlation with KSR1 profile":0.877,"mean distance from KSR1 profile":0.601}
{"Target gene":"SLC35E3","mean correlation with KSR1 profile":-0.0491,"mean distance from KSR1 profile":1.31}
{"Target gene":"PHLPP2 (PH domain and leucine rich repeat protein phosphatase 2)","mean correlation with KSR1 profile":-0.0874,"mean distance from KSR1 profile":1.09}
{"Target gene":"GPRC5B (G protein-coupled receptor class C group 5 member B)","mean correlation with KSR1 profile":0.97,"mean distance from KSR1 profile":1.46}
{"Target gene":"WAS (WASP actin nucleation promoting factor)","mean correlation with KSR1 profile":0.0662,"mean distance from KSR1 profile":1.53}
{"Target gene":"SPOCK2","mean correlation with KSR1 profile":0.45,"mean distance from KSR1 profile":1.48}

More records follow:
Target gene	mean correlation with KSR1 profile	mean distance from KSR1 profile
FBXL2 (F-box and leucine rich repeat protein 2)	-0.482	1.71
NPAT (nuclear protein, coactivator of histone transcription)	0.328	1.04
ZNF516 (zinc finger protein 516)	-0.413	1.46
ZNF516 (zinc finger protein 516)	0.12	1.59
ZNF516 (zinc finger protein 516)	-0.192	1.35
PLOD3 (procollagen-lysine,2-oxoglutarate 5-dioxygenase 3)	-0.434	5.31
CDKL1 (cyclin dependent kinase like 1)	0.296	2.72
SCGB2A1 (secretoglobin family 2A member 1)	-0.284	1.98
KMT5A (lysine methyltransferase 5A)	0.666	1.65
SNCG (synuclein gamma)	-0.327	4.65
SLMAP (sarcolemma associated protein)	0.02	1.31
LRFN1	0.522	0.749
CARNS1 (carnosine synthase 1)	0.329	1.81
ATP10B (ATPase phospholipid transporting 10B (putative))	0.552	1.39
EIF4A3 (eukaryotic translation initiation factor 4A3)	-0.584	2.77
OSGIN1 (oxidative stress induced growth inhibitor 1)	-0.191	2.39
PDE1C (phosphodiesterase 1C)	0.909	0.515
RHBDD2 (rhomboid domain containing 2)	0.377	2.04
SLC3A2	-0.352	2.15
GAS2 (growth arrest specific 2)	-0.233	2.62
SLC39A3	-0.468	3.79
PRPF18 (pre-mRNA processing factor 18)	0.55	1.3
MOGAT2 (monoacylglycerol O-acyltransferase 2)	-0.0925	2.31
WDR1 (WD repeat domain 1)	0.166	3.09
ADD1 (adducin 1)	-0.425	2.61
SMARCAL1 (SNF2 related chromatin remodeling annealing helicase 1)	0.143	1.4
CD3D (CD3 delta subunit of T-cell receptor complex)	0.0561	1.79
ZNF136 (zinc finger protein 136)	0.256	1.4
HSD17B12 (hydroxysteroid 17-beta dehydrogenase 12)	0.00764	1.74
TENT4A (terminal nucleotidyltransferase 4A)	-0.0215	2.05
EXOC5 (exocyst complex component 5)	-0.0318	1.63
TIMM21 (translocase of inner mitochondrial membrane 21)	0.275	2.2
CES1P1 (carboxylesterase 1 pseudogene 1)	0.335	2.34
SFSWAP (splicing factor SWAP)	0.871	1.13
KLHL28 (kelch like family member 28)	-0.146	2.51
